# Some of the results follow.
# The chains behind the UniProt entries cited, without tags or fusion partners. Where a name states a change or a piece, a line headed by the entry shows the natural chain unless it says otherwise.
# UniProt P17050: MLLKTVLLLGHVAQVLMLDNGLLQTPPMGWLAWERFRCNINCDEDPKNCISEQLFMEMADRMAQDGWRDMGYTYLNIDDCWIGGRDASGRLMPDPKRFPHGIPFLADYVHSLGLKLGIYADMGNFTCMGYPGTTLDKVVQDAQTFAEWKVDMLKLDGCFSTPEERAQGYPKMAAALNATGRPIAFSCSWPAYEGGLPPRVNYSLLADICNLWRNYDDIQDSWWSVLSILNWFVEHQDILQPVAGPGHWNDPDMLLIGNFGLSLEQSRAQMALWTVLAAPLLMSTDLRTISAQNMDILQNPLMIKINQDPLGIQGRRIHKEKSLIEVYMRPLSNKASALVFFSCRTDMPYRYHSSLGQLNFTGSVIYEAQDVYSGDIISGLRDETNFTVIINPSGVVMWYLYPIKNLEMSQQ
# UniProt Q99836, whole entry, looked up: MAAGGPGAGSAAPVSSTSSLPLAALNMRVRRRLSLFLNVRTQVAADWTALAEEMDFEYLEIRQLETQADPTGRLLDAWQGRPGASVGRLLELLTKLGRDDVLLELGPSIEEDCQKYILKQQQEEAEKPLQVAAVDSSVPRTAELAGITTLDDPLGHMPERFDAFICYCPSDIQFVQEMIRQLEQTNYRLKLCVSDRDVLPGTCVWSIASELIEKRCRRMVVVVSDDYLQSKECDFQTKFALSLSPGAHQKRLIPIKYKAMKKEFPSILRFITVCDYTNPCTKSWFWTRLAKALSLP
# UniProt P18440: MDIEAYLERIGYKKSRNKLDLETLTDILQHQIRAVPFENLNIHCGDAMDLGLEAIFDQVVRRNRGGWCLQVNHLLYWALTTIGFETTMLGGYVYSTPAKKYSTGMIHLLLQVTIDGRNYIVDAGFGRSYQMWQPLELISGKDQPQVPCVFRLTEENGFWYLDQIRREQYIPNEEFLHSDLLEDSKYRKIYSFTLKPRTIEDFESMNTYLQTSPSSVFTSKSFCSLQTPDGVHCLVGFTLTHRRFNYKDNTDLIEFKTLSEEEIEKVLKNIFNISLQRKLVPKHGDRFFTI
# UniProt P54920: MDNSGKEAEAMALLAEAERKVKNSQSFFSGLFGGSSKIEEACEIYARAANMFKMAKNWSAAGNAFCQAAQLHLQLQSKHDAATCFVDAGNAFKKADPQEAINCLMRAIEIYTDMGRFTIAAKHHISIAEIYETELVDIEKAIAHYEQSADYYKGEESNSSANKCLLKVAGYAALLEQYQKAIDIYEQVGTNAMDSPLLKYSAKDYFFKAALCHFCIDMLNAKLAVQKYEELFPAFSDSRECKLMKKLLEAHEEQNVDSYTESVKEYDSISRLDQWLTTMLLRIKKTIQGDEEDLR
# UniProt Q69YL0: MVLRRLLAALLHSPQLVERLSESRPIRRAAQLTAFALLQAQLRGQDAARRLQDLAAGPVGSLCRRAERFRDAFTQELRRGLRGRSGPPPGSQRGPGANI
# UniProt Q92614: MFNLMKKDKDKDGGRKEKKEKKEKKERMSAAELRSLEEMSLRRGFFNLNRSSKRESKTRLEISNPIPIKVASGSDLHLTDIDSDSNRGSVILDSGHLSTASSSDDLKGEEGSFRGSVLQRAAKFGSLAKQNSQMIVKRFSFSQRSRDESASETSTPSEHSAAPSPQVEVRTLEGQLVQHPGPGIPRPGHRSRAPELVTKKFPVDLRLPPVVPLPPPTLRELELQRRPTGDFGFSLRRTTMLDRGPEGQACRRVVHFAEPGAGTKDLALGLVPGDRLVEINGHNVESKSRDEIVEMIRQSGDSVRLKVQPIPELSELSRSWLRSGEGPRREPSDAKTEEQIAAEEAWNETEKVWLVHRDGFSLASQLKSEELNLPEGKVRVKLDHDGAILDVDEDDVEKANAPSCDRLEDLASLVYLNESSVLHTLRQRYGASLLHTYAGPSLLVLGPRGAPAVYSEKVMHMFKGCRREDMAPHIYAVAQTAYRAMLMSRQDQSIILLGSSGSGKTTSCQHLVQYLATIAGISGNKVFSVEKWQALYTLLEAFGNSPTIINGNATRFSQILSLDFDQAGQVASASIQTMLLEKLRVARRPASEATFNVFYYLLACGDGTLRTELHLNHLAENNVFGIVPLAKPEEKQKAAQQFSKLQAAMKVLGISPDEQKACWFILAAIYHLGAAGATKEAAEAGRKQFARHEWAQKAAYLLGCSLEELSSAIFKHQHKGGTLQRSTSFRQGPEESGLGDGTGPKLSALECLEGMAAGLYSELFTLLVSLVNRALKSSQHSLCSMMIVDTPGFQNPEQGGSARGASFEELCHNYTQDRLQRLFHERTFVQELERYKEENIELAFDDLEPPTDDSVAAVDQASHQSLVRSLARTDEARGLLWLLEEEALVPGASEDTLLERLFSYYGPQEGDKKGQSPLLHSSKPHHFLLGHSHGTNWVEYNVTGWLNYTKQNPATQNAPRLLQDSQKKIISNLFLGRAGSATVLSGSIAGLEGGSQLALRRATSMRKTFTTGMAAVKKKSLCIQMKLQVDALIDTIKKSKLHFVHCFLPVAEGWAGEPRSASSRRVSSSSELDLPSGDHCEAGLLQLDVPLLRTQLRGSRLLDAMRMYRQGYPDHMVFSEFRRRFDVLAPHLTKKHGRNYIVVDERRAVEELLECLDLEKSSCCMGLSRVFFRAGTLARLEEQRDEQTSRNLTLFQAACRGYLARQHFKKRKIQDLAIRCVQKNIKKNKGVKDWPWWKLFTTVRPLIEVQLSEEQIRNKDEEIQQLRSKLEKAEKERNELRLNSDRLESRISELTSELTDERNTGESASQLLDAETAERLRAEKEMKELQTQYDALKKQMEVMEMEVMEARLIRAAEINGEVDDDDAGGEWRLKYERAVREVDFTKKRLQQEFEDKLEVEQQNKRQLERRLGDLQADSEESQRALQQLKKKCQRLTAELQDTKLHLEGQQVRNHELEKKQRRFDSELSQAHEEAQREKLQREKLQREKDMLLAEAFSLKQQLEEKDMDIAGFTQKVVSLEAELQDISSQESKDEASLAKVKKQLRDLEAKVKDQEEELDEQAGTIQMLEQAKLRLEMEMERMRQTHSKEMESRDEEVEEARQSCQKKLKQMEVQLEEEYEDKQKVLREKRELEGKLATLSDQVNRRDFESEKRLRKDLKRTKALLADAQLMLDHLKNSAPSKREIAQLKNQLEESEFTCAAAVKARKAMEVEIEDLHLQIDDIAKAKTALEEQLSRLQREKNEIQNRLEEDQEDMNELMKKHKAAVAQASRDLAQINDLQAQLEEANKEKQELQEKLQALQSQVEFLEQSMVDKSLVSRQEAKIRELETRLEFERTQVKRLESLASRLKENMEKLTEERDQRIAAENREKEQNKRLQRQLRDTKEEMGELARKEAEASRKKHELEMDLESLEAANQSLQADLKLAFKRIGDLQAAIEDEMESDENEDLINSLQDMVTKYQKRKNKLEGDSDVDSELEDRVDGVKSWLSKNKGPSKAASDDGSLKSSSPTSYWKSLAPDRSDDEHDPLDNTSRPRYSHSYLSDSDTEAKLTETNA
# UniProt G3V1V0: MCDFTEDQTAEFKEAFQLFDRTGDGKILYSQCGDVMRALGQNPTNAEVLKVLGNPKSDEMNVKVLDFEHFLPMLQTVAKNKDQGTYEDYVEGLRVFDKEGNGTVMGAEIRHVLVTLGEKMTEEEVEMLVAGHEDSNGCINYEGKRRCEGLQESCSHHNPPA
# UniProt Q6XQN6: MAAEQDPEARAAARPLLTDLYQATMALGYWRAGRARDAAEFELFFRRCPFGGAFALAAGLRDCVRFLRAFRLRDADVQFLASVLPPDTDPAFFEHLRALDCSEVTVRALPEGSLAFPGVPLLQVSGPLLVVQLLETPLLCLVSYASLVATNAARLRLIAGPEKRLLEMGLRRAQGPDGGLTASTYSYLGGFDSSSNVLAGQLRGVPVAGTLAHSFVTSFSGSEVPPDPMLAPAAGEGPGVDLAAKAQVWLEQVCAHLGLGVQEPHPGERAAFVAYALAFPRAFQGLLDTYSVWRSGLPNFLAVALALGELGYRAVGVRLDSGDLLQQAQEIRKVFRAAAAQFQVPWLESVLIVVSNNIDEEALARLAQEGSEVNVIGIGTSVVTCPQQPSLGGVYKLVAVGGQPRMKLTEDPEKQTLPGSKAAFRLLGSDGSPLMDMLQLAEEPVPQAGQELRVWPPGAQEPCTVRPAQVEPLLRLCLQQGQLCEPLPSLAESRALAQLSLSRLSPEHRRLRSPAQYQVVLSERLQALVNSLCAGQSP
# UniProt P35579, whole entry, looked up: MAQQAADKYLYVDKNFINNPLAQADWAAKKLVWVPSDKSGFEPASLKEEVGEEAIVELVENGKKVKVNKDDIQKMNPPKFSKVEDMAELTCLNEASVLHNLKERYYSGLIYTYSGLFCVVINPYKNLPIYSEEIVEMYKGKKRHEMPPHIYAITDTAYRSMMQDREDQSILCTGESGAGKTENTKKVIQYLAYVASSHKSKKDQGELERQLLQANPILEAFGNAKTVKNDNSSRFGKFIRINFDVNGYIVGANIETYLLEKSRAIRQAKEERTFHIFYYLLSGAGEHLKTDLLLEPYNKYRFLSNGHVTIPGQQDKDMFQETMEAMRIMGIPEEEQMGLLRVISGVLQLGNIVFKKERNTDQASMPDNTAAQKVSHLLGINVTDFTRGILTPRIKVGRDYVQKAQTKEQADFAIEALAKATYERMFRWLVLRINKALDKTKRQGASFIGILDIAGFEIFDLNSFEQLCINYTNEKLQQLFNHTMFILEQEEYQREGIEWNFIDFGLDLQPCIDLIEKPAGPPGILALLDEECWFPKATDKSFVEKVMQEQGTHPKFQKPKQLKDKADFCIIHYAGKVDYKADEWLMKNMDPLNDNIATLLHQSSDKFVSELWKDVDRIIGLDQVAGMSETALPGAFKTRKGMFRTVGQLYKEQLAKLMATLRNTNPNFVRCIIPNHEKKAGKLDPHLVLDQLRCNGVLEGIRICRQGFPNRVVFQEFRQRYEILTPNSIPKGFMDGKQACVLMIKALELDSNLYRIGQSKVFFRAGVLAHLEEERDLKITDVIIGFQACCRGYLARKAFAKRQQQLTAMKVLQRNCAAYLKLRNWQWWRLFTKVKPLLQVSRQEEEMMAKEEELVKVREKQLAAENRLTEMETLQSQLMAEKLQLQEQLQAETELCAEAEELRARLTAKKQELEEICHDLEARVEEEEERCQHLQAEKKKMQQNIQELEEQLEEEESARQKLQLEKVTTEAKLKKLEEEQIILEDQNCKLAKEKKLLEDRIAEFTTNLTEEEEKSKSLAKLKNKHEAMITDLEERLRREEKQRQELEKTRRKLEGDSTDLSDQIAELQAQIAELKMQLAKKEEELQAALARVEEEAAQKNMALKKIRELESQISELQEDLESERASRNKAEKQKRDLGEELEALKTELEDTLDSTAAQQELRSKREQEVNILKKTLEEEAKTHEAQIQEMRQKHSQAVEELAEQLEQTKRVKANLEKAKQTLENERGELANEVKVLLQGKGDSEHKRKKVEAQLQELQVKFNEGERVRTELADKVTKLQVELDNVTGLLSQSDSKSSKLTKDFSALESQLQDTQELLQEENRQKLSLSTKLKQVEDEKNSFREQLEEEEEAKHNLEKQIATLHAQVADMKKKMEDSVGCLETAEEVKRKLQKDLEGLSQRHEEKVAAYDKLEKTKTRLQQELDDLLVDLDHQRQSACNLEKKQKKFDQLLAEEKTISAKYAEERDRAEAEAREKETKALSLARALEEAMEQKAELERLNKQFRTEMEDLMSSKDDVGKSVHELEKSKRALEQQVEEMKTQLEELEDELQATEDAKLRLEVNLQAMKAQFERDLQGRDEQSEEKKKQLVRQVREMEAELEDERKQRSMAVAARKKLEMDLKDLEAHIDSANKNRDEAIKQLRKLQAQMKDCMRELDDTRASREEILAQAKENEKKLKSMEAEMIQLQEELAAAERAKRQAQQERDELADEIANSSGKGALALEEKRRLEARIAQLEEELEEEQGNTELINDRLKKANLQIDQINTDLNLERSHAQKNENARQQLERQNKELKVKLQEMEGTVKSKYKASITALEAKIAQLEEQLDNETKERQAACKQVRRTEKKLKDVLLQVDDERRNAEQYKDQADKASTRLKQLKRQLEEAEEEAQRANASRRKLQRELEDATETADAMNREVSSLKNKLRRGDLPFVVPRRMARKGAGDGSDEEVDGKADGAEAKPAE
# UniProt O95544: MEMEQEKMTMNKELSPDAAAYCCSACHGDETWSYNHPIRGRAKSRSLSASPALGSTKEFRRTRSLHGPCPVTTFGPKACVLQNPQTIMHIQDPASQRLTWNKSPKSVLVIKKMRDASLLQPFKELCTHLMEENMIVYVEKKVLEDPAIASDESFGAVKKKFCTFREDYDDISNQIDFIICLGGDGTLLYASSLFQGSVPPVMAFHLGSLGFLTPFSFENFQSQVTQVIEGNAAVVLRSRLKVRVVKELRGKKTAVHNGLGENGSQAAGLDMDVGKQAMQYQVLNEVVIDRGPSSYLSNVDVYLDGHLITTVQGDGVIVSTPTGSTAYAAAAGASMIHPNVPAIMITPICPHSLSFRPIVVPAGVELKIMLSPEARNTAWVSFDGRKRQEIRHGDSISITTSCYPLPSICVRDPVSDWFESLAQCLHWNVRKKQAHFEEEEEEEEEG
# How the values were obtained:
# Assay in all cases: log2 fold change, soluble protein after heating vs DMSO (PISA); higher = thermal stabilisation; K562 lysate, 10 uM; active = over 0.2 and 3.5 SD of the protein, either way, in both replicates (recomputed)
# [1] = compound: Cc1cn(-c2cc(NC(=O)c3ccc(C)c(Nc4nccc(-c5cccnc5)n4)c3)cc(C(F)(F)F)c2)cn1 [nilotinib]
# Procedure, shortened: (§1)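 K562 pellets were dounce-homogenised in PBS pH 7.4 with 1 mM MgCl2, and the crude extract at 1 mg/mL protein was treated with 10 μM compound for 30 min. Aliquots were heated for 3 min across 48°C-58°C, pooled, and brought to 0.5% NP-40 at 4°C; soluble protein was the supernatant after 21,000xg for 90 min. Soluble protein was quantified by TMTpro 16plex LC-MS/MS with channel sums equalised, and reported as log2 fold change in thermal stability against DMSO controls, with values from duplicates.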
# [2] = compound: Cc1nc(Nc2n[nH]c3c2CN(C(=O)N[C@H](CN(C)C)c2ccccc2)C3(C)C)c2sccc2n1
# Procedure, shortened: as §1
# [3] = compound: Cc1nc(Nc2ncc(C(=O)Nc3c(C)cccc3Cl)s2)cc(N2CCN(CCO)CC2)n1 [dasatinib]
# Procedure, shortened: as §1
# [4] = compound: Cc1ncc(-c2ccnc(Nc3ccc(S(C)(=O)=O)cc3)n2)n1C(C)C
# Procedure, shortened: as §1
# [5] = compound: Cn1cc(-c2ccc3c(c2)CCN3C(=O)Cc2cccc(C(F)(F)F)c2)c2c(N)ncnc21
# Procedure, shortened: as §1
# [6] = compound: Cn1cc(CNCC2CCN(c3ncc(C(=O)NO)cn3)CC2)c2ccccc21 [quisinostat]
# Procedure, shortened: as §1
# [7] = compound: Cn1cncc1[C@@](N)(c1ccc(Cl)cc1)c1ccc2c(c1)c(-c1cccc(Cl)c1)cc(=O)n2C [tipifarnib]
# Procedure, shortened: as §1
# [8] = compound: NC(=O)Nc1cc(-c2cccc(F)c2)sc1C(=O)N[C@H]1CCCNC1
# Procedure, shortened: as §1
# [9] = compound: NC(=O)c1cnc(N[C@@H]2CCCC[C@@H]2N)nc1Nc1cccc(-n2nccn2)c1
# Procedure, shortened: as §1
# [10] = compound: NC1(c2ccc(-c3nc4ccn5c(=O)[nH]nc5c4cc3-c3ccccc3)cc2)CCC1
# Procedure, shortened: as §1
# [11] = compound: NCC(=O)Nc1ccc(-n2nc(C(F)(F)F)cc2-c2ccc3c(ccc4ccccc43)c2)cc1
# Procedure, shortened: as §1
# [12] = compound: O=C(CCCCCCC(=O)Nc1ccccc1)NO [vorinostat]
# Procedure, shortened: as §1
# [13] = compound: O=C(O)c1ccc2c(c1)nc(Nc1cccc(Cl)c1)c1ccncc12 [silmitasertib]
# Procedure, shortened: as §1
# [14] = compound: O=C1NC(=O)C(c2cnc3ccccn23)=C1c1cn2c3c(cc(F)cc13)CN(C(=O)N1CCCCC1)CC2
# Procedure, shortened: as §1
# [15] = compound: c1cn2cc(-c3ccc4cn[nH]c4c3)nc(Nc3ccc(N4CCOCC4)cc3)c2n1 [entospletinib]
# Procedure, shortened: as §1
Target,log2 fold change [1],log2 fold change [2],log2 fold change [3],log2 fold change [4],log2 fold change [5],log2 fold change [6],log2 fold change [7],log2 fold change [8],log2 fold change [9],log2 fold change [10],log2 fold change [11],log2 fold change [12],log2 fold change [13],log2 fold change [14],log2 fold change [15]
NBEAL2 (UniProt Q6ZNJ1),inactive: 0.031,inactive: -0.008,inactive: -0.069,inactive: 0.036,inactive: 0.029,inactive: -0.077,inactive: -0.017,inactive: 0.033,inactive: 0.014,inactive: 0.06,inactive: -0.025,active: -0.341,inactive: 0.047,inactive: 0.02,inactive: 0.026
NAGA (UniProt P17050),inactive: -0.019,inactive: -0.04,inactive: -0.033,inactive: -0.1,inactive: -0.032,inactive: 0.003,inactive: 0.036,inactive: -0.004,inactive: -0.024,inactive: 0.008,inactive: -0.04,inactive: 0.062,inactive: -0.03,inactive: -0.015,inactive: -0.024
NCBP1 (UniProt Q09161),inactive: -0.013,inactive: 0.017,inactive: -0.002,inactive: -0.005,inactive: 0,inactive: -0.044,inactive: 0.011,inactive: 0.023,inactive: 0.007,inactive: -0.032,inactive: 0.002,inactive: -0.149,inactive: 0.05,inactive: -0.013,inactive: -0.01
NACA (UniProt E9PAV3),inactive: -0.004,inactive: -0.004,inactive: -0.012,inactive: -0.034,inactive: 0.002,inactive: -0.07,inactive: 0.016,inactive: 0.019,inactive: -0.02,inactive: -0.002,inactive: 0.044,inactive: 0.13,inactive: -0.018,inactive: -0.012,inactive: -0.001
MYD88 isoform 6 (UniProt Q99836),inactive: -0.003,inactive: 0.001,inactive: -0.021,inactive: -0.027,inactive: 0.024,inactive: -0.033,inactive: 0.004,inactive: 0,inactive: 0.03,inactive: 0.054,inactive: -0.005,active: -0.366,inactive: 0.023,inactive: -0.05,inactive: 0.033
NAT1 (UniProt P18440),inactive: -0.005,inactive: -0.017,inactive: -0.058,inactive: -0.04,inactive: 0.097,inactive: -0.1,inactive: -0.006,inactive: 0.017,inactive: -0.018,inactive: -0.037,inactive: -0.049,inactive: 0.144,active: 0.275,inactive: 0.032,inactive: -0.04
NAA40 (UniProt Q86UY6),inactive: -0.011,inactive: 0.006,inactive: 0.01,inactive: 0.013,inactive: 0.085,inactive: -0.038,inactive: 0.049,inactive: 0.094,inactive: -0.008,inactive: 0.003,inactive: -0.087,inactive: -0.067,inactive: 0.082,inactive: 0.045,inactive: -0.052
NDC1 (UniProt Q9BTX1),inactive: -0.019,inactive: -0.006,inactive: -0.071,inactive: -0.018,inactive: 0.052,inactive: -0.03,inactive: 0.009,inactive: 0,inactive: -0.01,inactive: -0.028,inactive: 0.013,inactive: -0.134,inactive: -0.016,inactive: -0.012,inactive: -0.016
NADK2 (UniProt Q4G0N4),inactive: 0.022,inactive: 0.002,inactive: -0.016,inactive: -0.008,inactive: -0.022,inactive: 0.017,inactive: 0.008,inactive: -0.032,inactive: 0.029,inactive: 0.03,inactive: -0.002,inactive: -0.106,inactive: 0.044,inactive: 0.003,inactive: -0.001
NAPA (UniProt P54920),inactive: 0.016,inactive: 0.004,inactive: -0.056,inactive: 0.011,inactive: 0.038,inactive: 0.107,inactive: 0.024,inactive: -0.078,inactive: 0.018,inactive: 0.037,inactive: 0.014,inactive: 0.087,inactive: -0.003,inactive: 0.024,inactive: -0.038
NCAPD2 (UniProt Q15021),inactive: 0.006,inactive: 0.01,inactive: -0.037,inactive: -0.001,inactive: 0.031,inactive: -0.064,inactive: -0.019,inactive: 0.044,inactive: 0.003,inactive: -0.009,inactive: -0.01,active: -0.332,inactive: 0.01,inactive: -0.005,inactive: -0.001
MYOM1 (UniProt P52179),inactive: -0.127,inactive: -0.078,inactive: 0.058,inactive: 0.039,inactive: 0.023,inactive: 0.115,inactive: 0.01,inactive: 0.083,inactive: -0.016,inactive: -0.035,inactive: 0.062,inactive: 0.055,inactive: 0.014,inactive: 0.292,inactive: 0.028
NCBP2AS2 (UniProt Q69YL0),inactive: -0.078,inactive: 0.03,inactive: -0.09,inactive: 0.03,inactive: 0.017,inactive: 0.006,inactive: -0.107,inactive: 0.007,inactive: -0.049,inactive: -0.018,inactive: -0.103,inactive: 0.133,inactive: 0.082,inactive: 0.034,inactive: -0.064
MYO18A (UniProt Q92614),inactive: 0.016,inactive: -0.011,inactive: -0.004,inactive: 0.009,inactive: 0.015,inactive: -0.031,inactive: 0.011,inactive: -0.016,inactive: 0.002,inactive: -0.01,inactive: 0.009,inactive: 0,inactive: -0.027,inactive: -0.014,inactive: -0.003
MYL6 (UniProt G3V1V0),inactive: 0.011,inactive: 0.118,inactive: -0.004,inactive: 0.087,inactive: -0.036,inactive: -0.088,inactive: -0.057,inactive: -0.04,inactive: 0.042,inactive: -0.091,inactive: -0.297,inactive: -0.023,inactive: 0.105,inactive: -0.061,inactive: -0.102
NBEA (UniProt Q8NFP9),inactive: -0.018,inactive: -0.007,inactive: -0.06,inactive: 0.02,inactive: -0.015,inactive: -0.021,inactive: 0.045,inactive: 0.025,inactive: 0.015,inactive: 0.051,inactive: -0.013,inactive: -0.152,inactive: 0.015,inactive: -0.062,inactive: 0.025
NAPRT (UniProt Q6XQN6),inactive: -0.004,inactive: 0.018,inactive: 0.009,inactive: -0.021,inactive: 0.008,inactive: 0.12,inactive: 0.017,inactive: -0.064,inactive: 0.014,inactive: 0.041,inactive: -0.032,inactive: 0.07,inactive: 0.03,inactive: -0.063,inactive: -0.009
MYO1C (UniProt O00159),inactive: 0.019,inactive: -0.013,inactive: 0.112,inactive: 0.005,inactive: -0.038,inactive: -0.052,inactive: 0.019,inactive: -0.082,inactive: 0,inactive: -0.087,inactive: -0.017,inactive: -0.171,inactive: 0.015,inactive: 0.11,inactive: 0.033
MYH9 (UniProt P35579),inactive: -0.012,inactive: -0.004,inactive: 0.005,inactive: 0.018,inactive: -0.006,inactive: 0.015,inactive: 0.004,inactive: -0.007,inactive: 0.012,inactive: -0.019,inactive: 0.017,inactive: 0.022,inactive: -0.008,inactive: 0.005,inactive: -0.01
NAPG (UniProt Q99747),inactive: 0.064,inactive: -0.009,inactive: -0.01,inactive: -0.001,inactive: 0.001,inactive: 0.035,inactive: 0.019,inactive: -0.012,inactive: 0.001,inactive: 0.027,inactive: 0.01,inactive: -0.011,inactive: -0.034,inactive: 0.019,inactive: 0.009
NADK (UniProt O95544),inactive: -0.024,inactive: 0,inactive: 0.03,inactive: 0.005,inactive: -0.026,inactive: -0.004,inactive: 0.002,inactive: -0.039,inactive: -0.044,inactive: 0.025,inactive: 0.012,inactive: 0.05,inactive: -0.049,inactive: 0.013,inactive: -0.042

# An excerpt of these results, tab-delimited.
Target	log2 fold change [1]	log2 fold change [2]	log2 fold change [3]	log2 fold change [4]	log2 fold change [5]	log2 fold change [6]	log2 fold change [7]	log2 fold change [8]	log2 fold change [9]	log2 fold change [10]	log2 fold change [11]	log2 fold change [12]	log2 fold change [13]	log2 fold change [14]	log2 fold change [15]
NACA (UniProt E9PAV3)	inactive: -0.004	inactive: -0.004	inactive: -0.012	inactive: -0.034	inactive: 0.002	inactive: -0.07	inactive: 0.016	inactive: 0.019	inactive: -0.02	inactive: -0.002	inactive: 0.044	inactive: 0.13	inactive: -0.018	inactive: -0.012	inactive: -0.001
NAPA (UniProt P54920)	inactive: 0.016	inactive: 0.004	inactive: -0.056	inactive: 0.011	inactive: 0.038	inactive: 0.107	inactive: 0.024	inactive: -0.078	inactive: 0.018	inactive: 0.037	inactive: 0.014	inactive: 0.087	inactive: -0.003	inactive: 0.024	inactive: -0.038

# — the supplement of paper PMC10849652
